Measured values as given in EP3960174B1 (priority 2020, dated 2022).
For at least one compound, name, drawing or mass did not settle the structure.

Test system: mouse trachea
Assay: Mouse trachea model (organ bath), ACh-induced contraction force
Conditions: added 10 minutes prior to ACh; Figure 7 compared with Figure 6 (mixture of compound 1 and 2)

Structure (SMILES): COc1ccc2c3c1O[C@H]1C[C@@H](O)C=C[C@@]31CCN(C)C2 [galantamine]
- overall increase in contraction force: somewhat higher
